Measurements taken from article PMC6381143.
Results are given in words; binding and its absence hold for the method and conditions named. In cells and extracts the contact can be indirect. Some results given as binding are weak or reduced against the parent protein; the word gives no strength. For part of these data: Where a sequence is shown, tags or fusion partners need not be part of it.

Chains of the proteins cited; added tags and fusions are not shown.
UniProt Q969H0: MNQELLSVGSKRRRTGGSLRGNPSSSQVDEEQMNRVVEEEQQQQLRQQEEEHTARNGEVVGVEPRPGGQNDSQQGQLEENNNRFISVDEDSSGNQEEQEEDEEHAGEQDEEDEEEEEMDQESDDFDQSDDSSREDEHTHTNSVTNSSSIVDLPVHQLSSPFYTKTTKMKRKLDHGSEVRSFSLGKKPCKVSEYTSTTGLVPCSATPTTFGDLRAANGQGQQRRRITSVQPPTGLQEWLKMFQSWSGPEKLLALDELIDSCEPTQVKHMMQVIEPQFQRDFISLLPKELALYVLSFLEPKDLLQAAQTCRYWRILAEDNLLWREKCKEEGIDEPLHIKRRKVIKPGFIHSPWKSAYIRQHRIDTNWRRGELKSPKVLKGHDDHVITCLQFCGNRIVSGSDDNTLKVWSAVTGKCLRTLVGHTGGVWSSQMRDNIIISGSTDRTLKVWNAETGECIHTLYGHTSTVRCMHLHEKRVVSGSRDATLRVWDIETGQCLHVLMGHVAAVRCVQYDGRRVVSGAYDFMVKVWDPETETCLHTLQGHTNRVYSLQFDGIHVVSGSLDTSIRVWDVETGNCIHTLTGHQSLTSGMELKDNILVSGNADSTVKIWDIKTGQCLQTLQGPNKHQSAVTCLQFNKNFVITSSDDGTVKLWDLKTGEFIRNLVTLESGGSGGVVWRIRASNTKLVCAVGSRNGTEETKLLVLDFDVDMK

Tests used:
[1] = target: FBXW7α, exogenous (human) (UniProt Q969H0); experiment: co-IP; exogenous proteins in HEK-293T cells; FBXW7 precipitated, ZEB2 detected by blot
[2] = target: endogenous FBXW7 (human (endogenous in HCT116)) (UniProt Q969H0); experiment: co-IP; endogenous proteins in HCT116 cells (cells with FBXW7 deletion beside them); FBXW7 precipitated, ZEB2 detected by blot
[3] = target: FLAG-Fbxw7 made in TNT-coupled reticulocyte lysate (human) (UniProt Q969H0); experiment: co-IP; IP from TNT-coupled reticulocyte lysate

B1: GFP-ZEB2 (human ZEB2 full-length cDNA in pEGFP-C2) (protein, UniProt O60315 1-1214)
chain: MKQPIMADGPRCKRRKQANPRRKNVVNYDNVVDTGSETDEEDKLHIAEDDGIANPLDQETSPASVPNHESSPHVSQALLPREEEEDEIREGGVEHPWHNNEILQASVDGPEEMKEDYDTMGPEATIQTAINNGTVKNANCTSDFEEYFAKRKLEERDGHAVSIEEYLQRSDTAIIYPEAPEELSRLGTPEANGQEENDLPPGTPDAFAQLLTCPYCDRGYKRLTSLKEHIKYRHEKNEENFSCPLCSYTFAYRTQLERHMVTHKPGTDQHQMLTQGAGNRKFKCTECGKAFKYKHHLKEHLRIHSGEKPYECPNCKKRFSHSGSYSSHISSKKCIGLISVNGRMRNNIKTGSSPNSVSSSPTNSAITQLRNKLENGKPLSMSEQTGLLKIKTEPLDFNDYKVLMATHGFSGTSPFMNGGLGATSPLGVHPSAQSPMQHLGVGMEAPLLGFPTMNSNLSEVQKVLQIVDNTVSRQKMDCKAEEISKLKGYHMKDPCSQPEEQGVTSPNIPPVGLPVVSHNGATKSIIDYTLEKVNEAKACLQSLTTDSRRQISNIKKEKLRTLIDLVTDDKMIENHNISTPFSCQFCKESFPGPIPLHQHERYLCKMNEEIKAVLQPHENIVPNKAGVFVDNKALLLSSVLSEKGMTSPINPYKDHMSVLKAYYAMNMEPNSDELLKISIAVGLPQEFVKEWFEQRKVYQYSNSRSPSLERSSKPLAPNSNPPTKDSLLPRSPVKPMDSITSPSIAELHNSVTNCDPPLRLTKPSHFTNIKPVEKLDHSRSNTPSPLNLSSTSSKNSHSSSYTPNSFSSEELQAEPLDLSLPKQMKEPKSIIATKNKTKASSISLDHNSVSSSSENSDEPLNLTFIKKEFSNSNNLDNKSTNPVFSMNPFSAKPLYTALPPQSAFPPATFMPPVQTSIPGLRPYPGLDQMSFLPHMAYTYPTGAATFADMQQRRKYQRKQGFQGELLDGAQDYMSGLDDMTDSDSCLSRKKIKKTESGMYACDLCDKTFQKSSSLLRHKYEHTGKRPHQCQICKKAFKHKHHLIEHSRLHSGEKPYQCDKCGKRFSHSGSYSQHMNHRYSYCKREAEEREAAEREAREKGHLEPTELLMNRAYLQSITPQGYSDSEERESMPRDGESEKEHEKEGEDGYGKLGRQDGDEEFEEEEEESENKSMDTDPETIRDEEETGDHSMDDSSEDGKMETKSDHEEDNMEDGM
binding [1]: binds

B2: endogenous ZEB2 (protein, UniProt O60315 1-1214)
chain: B1 chain
binding [2]: binds

B3: ZEB2 made in TNT-coupled reticulocyte lysate (protein, UniProt O60315 1-1214)
chain: B1 chain
binding [3]: binds
